From PubChem BioAssay AID248 (DTP/NCI, 2004)
The list does not hold the whole screen: it gathers tests that were run many times, whatever their T/C, doses with no T/C, and many T/C values between a quarter and a half above the control. Other doses and runs of a compound stand elsewhere. T/C is the treated group as % of the vehicle group. Some entries give survivors of the animals treated and no T/C: the source holds a T/C of zero for them, seemingly a mark for toxic or unscored doses. Some doses without a T/C left all or most animals alive at the check, yet need not have been tolerated: survival well below the control is almost never listed, so the zero probably covers shortened survival too. Counts of survivors are from the toxicity check (mostly the fifth day) where no day follows; animals may have died later. Schedule codes are those of the source, read here as Q, the interval in days (D) or hours (H), X, the number of doses. Some schedule codes hold Z or #, which are not explained here. Some entries hold several experiments; the results are listed from low to high. Where survival is the endpoint, the PubChem record calls one and a half times the control and up active, and a quarter to a half above the control has no call in these data; cut-offs in other NCI protocols can differ. Some T/C values are followed by the survivors on the day toxicity was checked, most often the fifth; without a count, all were alive then.

Test system: L1210 leukemia ip in BDF1 mice, survival T/C
Test: NCI In Vivo Anticancer Drug Screen. Data for tumor model L1210 Leukemia (intraperitoneal) in B6D2F1 (BDF1) mice
Conditions: higher T/C = longer survival
[1] = T/C endpoint: mean survival time, dose: 400.0 mg/kg/injection, schedule: Q04DX003 (ip), vehicle: saline with Tween-80
[2] = T/C endpoint: mean survival time, dose: 400.0 mg/kg/injection, schedule: Q01DX001 (ip), vehicle: saline
[3] = T/C endpoint: mean survival time, dose: 200.0 mg/kg/injection, schedule: Q01DX009 (ip), vehicle: saline with Tween-80

CN=C(N)Nc1ccc(NC(=O)c2ccc(C(=O)Nc3ccc(NC(N)=NC)cc3)cc2)cc1
T/C (T/C endpoint: mean survival time, dose: 1.0 mg/kg/injection, schedule: Q01DX015 (ip), vehicle: methylcellulose (MC)): 136 % of control
T/C (T/C endpoint: mean survival time, dose: 1.0 mg/kg/injection, schedule: Q01DX Z (ip), vehicle: carboxymethylcellulose (CMC)): 138 % of control
T/C (T/C endpoint: mean survival time, dose: 5.0 mg/kg/injection, schedule: Q01DX001 (ip), vehicle: methylcellulose (MC)): 137 % of control
T/C (T/C endpoint: mean survival time, dose: 8.0 mg/kg/injection, schedule: Q01DX015 (ip), vehicle: methylcellulose (MC)): 134 % of control
T/C (T/C endpoint: mean survival time, dose: 8.0 mg/kg/injection, schedule: Q01DX Z (ip), vehicle: carboxymethylcellulose (CMC)): 144 % of control
T/C (T/C endpoint: mean survival time, dose: 10.0 mg/kg/injection, schedule: Q01DX001 (ip), vehicle: methylcellulose (MC)): 106, 119, 132, 139 % of control
T/C (T/C endpoint: mean survival time, dose: 20.0 mg/kg/injection, schedule: Q01DX001 (ip), vehicle: methylcellulose (MC)): 121, 143, 162, 176 % of control
T/C (T/C endpoint: mean survival time, dose: 30.0 mg/kg/injection, schedule: Q01DX001 (ip), vehicle: methylcellulose (MC)): 138 % of control [9 of 10 alive]
survivor count (T/C endpoint: mean survival time, dose: 32.0 mg/kg/injection, schedule: Q01DX015 (ip), vehicle: methylcellulose (MC)): 0 of 6
survivor count (T/C endpoint: mean survival time, dose: 34.0 mg/kg/injection, schedule: Q01DX Z (ip), vehicle: carboxymethylcellulose (CMC)): 6 of 6
survivor count (T/C endpoint: mean survival time, dose: 40.0 mg/kg/injection, schedule: Q01DX001 (ip), vehicle: methylcellulose (MC)): 1 of 6
survivor count (T/C endpoint: mean survival time, dose: 68.0 mg/kg/injection, schedule: Q01DX Z (ip), vehicle: carboxymethylcellulose (CMC)): 0 of 6
survivor count (T/C endpoint: mean survival time, dose: 136.0 mg/kg/injection, schedule: Q01DX Z (ip), vehicle: carboxymethylcellulose (CMC)): 0 of 6

C/C=C1\CN2CCC34CC5C6CC7c8c(c9ccccc9n8C)CC(C6COC5(C)OC35C2CC1C(C(=O)OC)N5c1ccccc14)N7C (stereo not given)
survivor count (T/C endpoint: mean survival time, dose: 200.0 mg/kg/injection, schedule: Q04DX003 (ip), vehicle: saline with Tween-80): 6 of 6
survivor count [1]: 6 of 6

CN/N=C/c1cc(=O)[nH]c(=O)[nH]1
survivor count [2]: 2 of 4

CC(=O)Oc1ccc2c(c1N=NN(C)C)CCC1C2CCC2(C)C(=O)CCC12 (stereo not given)
survivor count (T/C endpoint: mean survival time, dose: 400.0 mg/kg/injection, schedule: Q01DX001 (ip), vehicle: Klucel (hydroxypropylcellulose) (HPC)): 0 of 3

O=C1C2CCC(C2)C1C(O)(C(F)(F)F)C(F)(F)F (stereo not given)
survivor count [3]: 3 of 6
survivor count [1]: 0 of 6

CCCCCCCCCCCCCCCCCC(=O)N/N=C\c1c(O)ccc2ccccc12
survivor count (T/C endpoint: mean survival time, dose: 200.0 mg/kg/injection, schedule: Q01DX009 (ip), vehicle: Klucel (hydroxypropylcellulose) (HPC)): 6 of 6

CC(C)(C)NCCCN1CC1(C)C (stereo not given)
survivor count (T/C endpoint: mean survival time, dose: 50.0 mg/kg/injection, schedule: Q01DX009 (ip), vehicle: saline): 0 of 6
survivor count (T/C endpoint: mean survival time, dose: 100.0 mg/kg/injection, schedule: Q01DX009 (ip), vehicle: saline): 0 of 6
survivor count (T/C endpoint: mean survival time, dose: 200.0 mg/kg/injection, schedule: Q01DX001 (ip), vehicle: saline): 0 of 6
survivor count [2]: 0 of 6

CCCCNCCC(SS)c1ccc(Cl)cc1 (stereo not given)
survivor count [3]: 0 of 6
survivor count [1]: 0 of 6

C[n+]1c2ccccc2nc2c(N)cc(N)cc21
T/C (T/C endpoint: mean survival time, dose: 10.0 mg/kg/injection, schedule: Q#A X030 (ip), vehicle: water): 139 % of control
T/C (T/C endpoint: mean survival time, dose: 10.0 mg/kg/injection, schedule: Q#A X Z (ip), vehicle: water): 134 % of control
T/C (T/C endpoint: mean survival time, dose: 15.0 mg/kg/injection, schedule: Q#A X Z (ip), vehicle: carboxymethylcellulose (CMC)): 130 % of control [5 of 6 alive]
T/C (T/C endpoint: mean survival time, dose: 15.0 mg/kg/injection, schedule: Q#A X Z (ip), vehicle: water): 145 % of control
survivor count (T/C endpoint: mean survival time, dose: 16.0 mg/kg/injection, schedule: Q01DX007 (iv), vehicle: saline): 3 of 6
T/C (T/C endpoint: mean survival time, dose: 18.0 mg/kg/injection, schedule: Q01DX Z (ip), vehicle: saline): 139 % of control
T/C (T/C endpoint: mean survival time, dose: 20.0 mg/kg/injection, schedule: Q01DX009 (ip), vehicle: saline): 133 % of control
T/C (T/C endpoint: mean survival time, dose: 20.0 mg/kg/injection, schedule: Q01DX Z (ip), vehicle: carboxymethylcellulose (CMC)): 132 % of control [4 of 6 alive]
T/C (T/C endpoint: mean survival time, dose: 25.0 mg/kg/injection, schedule: Q01DX001 (ip), vehicle: water): 109, 115, 118, 130 % of control
survivor count (T/C endpoint: mean survival time, dose: 26.4 mg/kg/injection, schedule: Q03DX Z (ip), vehicle: carboxymethylcellulose (CMC)): 3 of 6
survivor count (T/C endpoint: mean survival time, dose: 30.0 mg/kg/injection, schedule: Q01DX Z (ip), vehicle: carboxymethylcellulose (CMC)): 2 of 6
survivor count (T/C endpoint: mean survival time, dose: 32.0 mg/kg/injection, schedule: Q01DX007 (iv), vehicle: saline): 0 of 6
T/C (T/C endpoint: mean survival time, dose: 32.0 mg/kg/injection, schedule: Q01DX009 (ip), vehicle: saline): 127 and 135 % of control
survivor count (T/C endpoint: mean survival time, dose: 32.0 mg/kg/injection, schedule: Q03HX008 (ip), vehicle: saline): 3 of 10
T/C (T/C endpoint: mean survival time, dose: 32.0 mg/kg/injection, schedule: Q03HX024 (ip), vehicle: saline): 129 % of control
survivor count (T/C endpoint: mean survival time, dose: 33.75 mg/kg/injection, schedule: Q#A X Z (ip), vehicle: water): 3 of 6
survivor count (T/C endpoint: mean survival time, dose: 39.9 mg/kg/injection, schedule: Q03DX Z (ip), vehicle: carboxymethylcellulose (CMC)): 2 of 6
survivor count (T/C endpoint: mean survival time, dose: 40.0 mg/kg/injection, schedule: Q01DX009 (ip), vehicle: saline): 0 of 6
survivor count (T/C endpoint: mean survival time, dose: 40.0 mg/kg/injection, schedule: Q01DX Z (im), vehicle: saline): 2 of 6
survivor count (T/C endpoint: mean survival time, dose: 50.6 mg/kg/injection, schedule: Q#A X Z (ip), vehicle: water): 0 of 6
survivor count (T/C endpoint: mean survival time, dose: 60.0 mg/kg/injection, schedule: Q03DX Z (ip), vehicle: carboxymethylcellulose (CMC)): 0 of 6
survivor count (T/C endpoint: mean survival time, dose: 64.0 mg/kg/injection, schedule: Q01DX009 (sc), vehicle: saline): 5 of 10
survivor count (T/C endpoint: mean survival time, dose: 64.0 mg/kg/injection, schedule: Q03HX016 (ip), vehicle: saline): 3 of 10
T/C (T/C endpoint: mean survival time, dose: 64.0 mg/kg/injection, schedule: Q04DX003 (ip), vehicle: saline): 130 % of control
T/C (T/C endpoint: mean survival time, dose: 80.0 mg/kg/injection, schedule: Q01DX Z (oral), vehicle: saline): 126 % of control [4 of 6 alive]
survivor count (T/C endpoint: mean survival time, dose: 90.0 mg/kg/injection, schedule: Q03DX Z (ip), vehicle: carboxymethylcellulose (CMC)): 0 of 6
survivor count (T/C endpoint: mean survival time, dose: 100.0 mg/kg/injection, schedule: Q01DX001 (ip), vehicle: water): 1 of 6
survivor count (T/C endpoint: mean survival time, dose: 128.0 mg/kg/injection, schedule: Q01DX001 (ip), vehicle: saline): 5 of 10
survivor count (T/C endpoint: mean survival time, dose: 128.0 mg/kg/injection, schedule: Q01DX009 (ip), vehicle: saline): 0 of 10
survivor count (T/C endpoint: mean survival time, dose: 128.0 mg/kg/injection, schedule: Q01DX009 (sc), vehicle: saline): 0 of 10
survivor count (T/C endpoint: mean survival time, dose: 128.0 mg/kg/injection, schedule: Q01DX Z (sc), vehicle: steroid suspending solution): 1 of 6
survivor count (T/C endpoint: mean survival time, dose: 128.0 mg/kg/injection, schedule: Q04DX003 (ip), vehicle: saline): 6 of 10
survivor count (T/C endpoint: mean survival time, dose: 160.0 mg/kg/injection, schedule: Q01DX Z (oral), vehicle: saline): 1 of 6
survivor count (T/C endpoint: mean survival time, dose: 200.0 mg/kg/injection, schedule: Q01DX001 (ip), vehicle: water): 0 of 6 and 1 of 6
survivor count (T/C endpoint: mean survival time, dose: 210.0 mg/kg/injection, schedule: Q07DX Z (ip), vehicle: carboxymethylcellulose (CMC)): 1 of 6
survivor count (T/C endpoint: mean survival time, dose: 256.0 mg/kg/injection, schedule: Q01DX001 (ip), vehicle: saline): 0 of 10
survivor count (T/C endpoint: mean survival time, dose: 256.0 mg/kg/injection, schedule: Q04DX003 (ip), vehicle: saline): 0 of 10
survivor count (T/C endpoint: mean survival time, dose: 512.0 mg/kg/injection, schedule: Q01DX001 (sc), vehicle: saline): 5 of 10
survivor count (T/C endpoint: mean survival time, dose: 648.0 mg/kg/injection, schedule: Q01DX Z (oral), vehicle: other): 5 of 6
survivor count (T/C endpoint: mean survival time, dose: 972.0 mg/kg/injection, schedule: Q01DX Z (oral), vehicle: other): 5 of 6
survivor count (T/C endpoint: mean survival time, dose: 1024.0 mg/kg/injection, schedule: Q01DX009 (oral), vehicle: saline): 6 of 10
T/C (T/C endpoint: median survival time, dose: 10.0 mg/kg/injection, schedule: Q01DX009 (ip), vehicle: saline): 133 % of control
T/C (T/C endpoint: median survival time, dose: 20.0 mg/kg/injection, schedule: Q01DX009 (ip), vehicle: saline): 130 and 140 % of control

CCCCCCCOCc1ccccc1
T/C (T/C endpoint: mean survival time, dose: 200.0 mg/kg/injection, schedule: Q04DX003 (ip), vehicle: saline): 126 % of control
